Test results reported in PubChem BioAssay AID2073 (Sanford-Burnham Center for Chemical Genomics, 2009).
About 570 (0.2%) of roughly 290,000 compounds were called active. Inconclusive results, whose numbers are uncertain, are shown with a selection of clear calls. No stated cut-off is given here; in the data, active means inhibition mostly above about 51% (no sharp cut-off); inconclusive means no clear call, values can overlap the other calls; inactive means mostly below about 53%.

Amino acid sequences for entries named in this document (tags omitted).
UniProt Q00975, whole entry, looked up: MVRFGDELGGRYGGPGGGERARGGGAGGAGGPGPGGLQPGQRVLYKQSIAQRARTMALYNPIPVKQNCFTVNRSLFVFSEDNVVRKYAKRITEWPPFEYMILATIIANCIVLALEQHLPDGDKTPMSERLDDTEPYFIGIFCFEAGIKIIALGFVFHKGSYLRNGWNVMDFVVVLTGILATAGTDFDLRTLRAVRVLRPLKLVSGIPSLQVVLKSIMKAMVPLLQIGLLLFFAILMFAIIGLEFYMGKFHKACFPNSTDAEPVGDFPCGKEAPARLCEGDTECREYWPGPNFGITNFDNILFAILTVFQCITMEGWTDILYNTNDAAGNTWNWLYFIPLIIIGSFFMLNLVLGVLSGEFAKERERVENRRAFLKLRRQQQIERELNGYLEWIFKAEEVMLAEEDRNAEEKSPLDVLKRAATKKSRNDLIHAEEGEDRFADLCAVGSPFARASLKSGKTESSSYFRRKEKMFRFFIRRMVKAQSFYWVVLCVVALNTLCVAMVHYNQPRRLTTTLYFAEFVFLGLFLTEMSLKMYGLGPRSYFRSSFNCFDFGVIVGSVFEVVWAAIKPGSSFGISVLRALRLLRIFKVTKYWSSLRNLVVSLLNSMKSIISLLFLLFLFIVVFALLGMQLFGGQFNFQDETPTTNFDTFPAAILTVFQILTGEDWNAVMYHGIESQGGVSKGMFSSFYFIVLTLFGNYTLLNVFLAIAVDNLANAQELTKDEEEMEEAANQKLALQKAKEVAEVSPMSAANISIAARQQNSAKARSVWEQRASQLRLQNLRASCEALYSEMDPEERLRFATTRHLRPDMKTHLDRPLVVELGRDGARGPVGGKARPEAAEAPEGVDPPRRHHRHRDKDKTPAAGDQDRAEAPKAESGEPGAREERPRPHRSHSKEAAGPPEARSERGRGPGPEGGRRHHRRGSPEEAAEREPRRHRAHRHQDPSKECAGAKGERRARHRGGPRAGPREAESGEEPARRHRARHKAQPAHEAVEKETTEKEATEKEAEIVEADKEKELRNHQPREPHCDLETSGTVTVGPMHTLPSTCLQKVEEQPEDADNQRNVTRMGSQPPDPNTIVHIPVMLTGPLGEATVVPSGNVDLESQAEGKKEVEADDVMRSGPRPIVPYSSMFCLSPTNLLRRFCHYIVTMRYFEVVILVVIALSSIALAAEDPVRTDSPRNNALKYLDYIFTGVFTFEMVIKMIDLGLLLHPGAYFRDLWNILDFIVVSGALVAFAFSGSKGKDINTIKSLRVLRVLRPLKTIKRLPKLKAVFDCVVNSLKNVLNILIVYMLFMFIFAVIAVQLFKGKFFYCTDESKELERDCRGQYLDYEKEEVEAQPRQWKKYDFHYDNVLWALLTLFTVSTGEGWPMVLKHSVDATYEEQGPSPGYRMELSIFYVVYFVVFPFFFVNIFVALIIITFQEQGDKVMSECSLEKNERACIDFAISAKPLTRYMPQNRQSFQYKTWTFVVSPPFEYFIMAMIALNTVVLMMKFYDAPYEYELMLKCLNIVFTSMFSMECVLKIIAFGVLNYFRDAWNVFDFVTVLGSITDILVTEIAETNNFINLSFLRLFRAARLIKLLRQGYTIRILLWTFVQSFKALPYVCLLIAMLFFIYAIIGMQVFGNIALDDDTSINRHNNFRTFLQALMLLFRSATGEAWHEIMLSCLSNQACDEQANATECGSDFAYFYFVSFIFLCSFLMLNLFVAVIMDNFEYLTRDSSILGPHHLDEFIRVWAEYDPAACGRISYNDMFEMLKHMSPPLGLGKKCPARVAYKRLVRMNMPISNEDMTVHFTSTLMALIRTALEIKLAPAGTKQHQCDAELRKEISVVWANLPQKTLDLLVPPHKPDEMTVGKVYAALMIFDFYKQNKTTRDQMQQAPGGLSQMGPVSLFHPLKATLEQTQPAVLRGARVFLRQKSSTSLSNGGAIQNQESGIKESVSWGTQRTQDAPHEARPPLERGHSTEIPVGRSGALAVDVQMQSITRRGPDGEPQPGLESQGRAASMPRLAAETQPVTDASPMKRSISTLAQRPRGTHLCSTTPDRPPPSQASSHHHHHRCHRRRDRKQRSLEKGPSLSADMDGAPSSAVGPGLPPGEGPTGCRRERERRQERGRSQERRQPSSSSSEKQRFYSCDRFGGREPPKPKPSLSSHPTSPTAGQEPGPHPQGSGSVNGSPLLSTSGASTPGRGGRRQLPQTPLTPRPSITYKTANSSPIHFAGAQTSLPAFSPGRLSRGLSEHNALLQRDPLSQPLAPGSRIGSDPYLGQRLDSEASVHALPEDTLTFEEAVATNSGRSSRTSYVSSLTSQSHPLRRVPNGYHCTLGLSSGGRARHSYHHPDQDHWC

target: Voltage-dependent N-type calcium channel subunit alpha-1B (Homo sapiens) (UniProt Q00975); assay: disruptors of CaV2.2 binding to Mint1 – biochemical, HTRF (AID 2073); conditions: HTRF protein-protein interaction, Mint1-CaV2.2; at 20 µM; hits give high values

Row | Compound | inhibition
1 | CC(C)c1ccccc1NC(=S)NC1CCCCC1 | inconclusive: 77.4%
2 | Cc1c(O)ccc2c(CC(=O)N[C@@H](Cc3ccccc3)C(=O)O)cc(=O)oc12 | inconclusive: 71.8%
3 | CCOC(=O)CNC(=O)c1ccc(C#CC2(O)CCCCC2)cc1 | inconclusive: 57.4%
4 | CC1(C)OC(=O)C(=CNc2ccccc2)C(=O)O1 | inactive: -0.4%
5 | COc1ccccc1C1CCN(c2ccc([N+](=O)[O-])cn2)CC1 | inconclusive: 79.6%
6 | Cc1cc(NC(=O)C2CC(c3ccc(F)cc3)=NO2)n(-c2ccccc2)n1 (configuration not stated) | inconclusive: 84.9%
7 | CCOC(=O)C1=C(Cc2ccc(Cl)cc2)C(=O)c2ccccc2C1=O | inactive: 66.8%
8 | Cc1ccc(OCc2nnc(N)s2)cc1 | inconclusive: 68.6%
9 | Cc1ccc(-n2nnnc2SCC(=O)Nc2sccc2C#N)cc1 | inactive: 0%
10 | COCCN(C(=S)Nc1cccc(C)c1C)C(C)c1ccco1 (configuration not stated) | inconclusive: 95.7%
11 | C=C1CCC[C@]2(C)C[C@H]3OC(=O)C(CN(C)CC(OC)OC)[C@H]3CC12 (some centres not stated) | inconclusive: 64.7%
12 | CCCCOc1ccc(C(=O)Nc2ccc(S(=O)(=O)Nc3onc(C)c3C)cc2)cc1 | inconclusive: 52.8%
13 | Cc1ccccc1NC(=S)NCc1cccs1 | inactive: 5.6%
14 | COc1ccc(/C=C/C(=O)NC(=S)Nc2cc3oc4ccccc4c3cc2OC)cc1 | inactive: 0.7%
15 | COc1ccccc1N1CSC2=C(C#N)C(c3ccc(SC)cc3)CC(=O)N2C1 (configuration not stated) | active: 81.5%
16 | O=C(Cc1ccccc1)Nc1ccc2oc(-c3cccnc3)nc2c1 | inconclusive: 52.9%
17 | CC(C)NC(=O)c1ccc(CSCc2ccccc2Cl)o1 | inconclusive: 70.3%
18 | COc1ccc(S(=O)(=O)N2CCCCCC2)cc1C(=O)Nc1ccccn1 | inconclusive: 54.2%
19 | CCC(C)[C@H]1CN=C(N)N1CCCc1cc(OC)c(OC)c(OC)c1 (some centres not stated) | inconclusive: 58.3%

An excerpt of these results, as a markdown table:

| Row | Compound | inhibition |
| --- | --- | --- |
| 6 | Cc1cc(NC(=O)C2CC(c3ccc(F)cc3)=NO2)n(-c2ccccc2)n1 (configuration not stated) | inconclusive: 84.9% |
| 7 | CCOC(=O)C1=C(Cc2ccc(Cl)cc2)C(=O)c2ccccc2C1=O | inactive: 66.8% |
| 8 | Cc1ccc(OCc2nnc(N)s2)cc1 | inconclusive: 68.6% |

(listing goes on)

Row | Compound | inhibition
20 | O=C1c2ccccc2S(=O)(=O)N1CCOc1ccc(F)cc1 | inconclusive: 62.8%
21 | COC(=O)Cn1c(=NC(=O)c2sc3ccccc3c2Cl)sc2cc(S(N)(=O)=O)ccc21 | inconclusive: 58.2%
22 | Cc1nc2cc(NC(=O)N3CCN(c4ccccn4)CC3)ccc2o1 | inactive: 0%
23 | COc1ccc(CCNC(=O)CCS(=O)(=O)c2ccc(Br)cc2)cc1OC | inconclusive: 59.2%
24 | Cc1cccc(OCC(=O)Nc2nnc(-c3ccco3)s2)c1 | inconclusive: 61%
25 | COc1ccc2c(c1)CCc1cc(C(=O)N3CCN(c4ccc(N5CCOCC5)nn4)CC3)sc1-2 | inactive: 13.6%
26 | COc1cccc(S(=O)(=O)Nc2ccc3c(c2)OCCO3)c1 | inconclusive: 76.4%
27 | Cc1cc(NS(=O)(=O)c2ccc(NC(NC(=O)C(C(F)(F)F)C(F)(F)F)(C(F)(F)F)C(F)(F)F)cc2)no1 | inconclusive: 80.2%
28 | Cc1ccc(/C=C/C(=O)Nc2ccc(O)c3c(=O)cc(-c4ccccc4Cl)oc23)cc1 | inactive: 13%
29 | CCc1ccccc1N1CSC2=C(C#N)C(c3ccccc3F)CC(=O)N2C1 (configuration not stated) | active: 84.5%
30 | C=CCn1c(=NC(=O)c2ccco2)sc2cc(C(=O)OC)ccc21 | inconclusive: 54.1%
31 | Fc1cccc(Cl)c1CSc1nnc2ccccn12 | inactive: 4%
32 | COc1ccccc1CN(C)C(=O)c1cnc(C)cn1 | inactive: 5.7%
33 | CC(C)(C)NC(=O)C(c1cccs1)N(Cc1ccco1)C(=O)c1csnn1 (configuration not stated) | inconclusive: 50.9%
34 | CC(C)[C@H]1COCCS(=O)(=O)N1Cc1cccc(Cl)c1 | inconclusive: 60.3%
35 | Cc1cc(C)c(C)c(S(=O)(=O)N[C@@H](C)C(=O)OCc2cc(=O)n3cc(Br)ccc3n2)c1C | inconclusive: 61.9%
36 | C=CCSc1n[nH]c(-c2ccc(OC)cc2)n1 | inconclusive: 53.6%
37 | CC(C)(C)SCCNC(=O)CN1C(=O)c2cccc3cccc1c23 | inactive: 35.7%
38 | Cc1occc1C(=O)NC1CCCN(Cc2ccc(Cl)cc2)C1 (configuration not stated) | inconclusive: 61.1%

Row | Compound | inhibition
39 | COc1ccc(NC(=O)/C(=C/c2cccnc2)NC(=O)c2cccs2)cc1 | inconclusive: 63%
40 | COc1ccc(NC(=O)c2ccc(-c3ccccc3)cc2)cc1S(=O)(=O)N1CCOCC1 | inconclusive: 54.5%
41 | COc1ccc(N=c2ssnc2Cl)cc1 | inactive: 27.4%
42 | O=c1c(Cl)nc2cc(Cl)ccc2n1CCNc1ncc(C(F)(F)F)cc1Cl | inactive: -81.2%
43 | COCCn1nnnc1C1(N(Cc2cc3cc(C)ccc3[nH]c2=O)CC2CCCO2)CCN(C)CC1 (configuration not stated) | inconclusive: 73.7%
44 | CCOc1c(S(=O)(=O)NC2CC(C)(C)NC(C)(C)C2)ccc(Cl)c1Cl | inconclusive: 56.6%
45 | Cc1ccc(C(C)C)c(OCc2ccc(C(=O)N/N=C/c3ccc(O)c(O)c3)cc2)c1 | inactive: 20.5%
46 | O=C(COc1cccc(C(F)(F)F)c1)N1CCN(c2ccccc2O)CC1 | inconclusive: 86%
47 | N#CCCN(Cc1ccccc1)S(=O)(=O)c1cccs1 | inconclusive: 57.4%
48 | Nc1cc(Cl)ccc1N1C(=O)CCC1=O | inconclusive: 65.9%
49 | COc1cc(C2Nc3cccc4cccc(c34)N2)ccc1O | inconclusive: 56.1%
50 | O=S(=O)(c1ccccc1)c1nc(-c2ccco2)oc1N1CCOCC1 | inconclusive: 73%
51 | COc1ccc(NC(=O)c2ccccc2C(=O)N2CCCCC2)cc1 | inconclusive: 60.7%
52 | NS(=O)(=O)c1cccc(NC(=O)Nc2ccc(Cl)cc2)c1 | inconclusive: 53.9%
53 | Cc1nc(SCC(=O)Nc2ccc(OCc3ccccc3)cc2)n[nH]1 | inconclusive: 57.5%
54 | COCCn1c(=NC(=O)/C=C/c2cccs2)sc2cc(NC(C)=O)ccc21 | inconclusive: 60.7%
55 | O=C1N/C(=C/c2ccc(N3CCOCC3)o2)C(=O)N1c1cccc(Cl)c1 | active: 58.7%
56 | Cc1ccc(C)c(N2CCN(C(=O)CCCCCn3c(=S)[nH]c4ccc(N5CCOCC5)cc4c3=O)CC2)c1 | inconclusive: 53.6%
57 | COc1cc(-c2noc(CCCC(=O)Nc3ccc(C(N)=O)cc3)n2)cc(OC)c1OC | inconclusive: 53.5%
